The target of assay [1] is T1, CD73 recombinant antigen (self-prepared product) (Homo sapiens (Human)) (UniProt P21589).
T1 sequence: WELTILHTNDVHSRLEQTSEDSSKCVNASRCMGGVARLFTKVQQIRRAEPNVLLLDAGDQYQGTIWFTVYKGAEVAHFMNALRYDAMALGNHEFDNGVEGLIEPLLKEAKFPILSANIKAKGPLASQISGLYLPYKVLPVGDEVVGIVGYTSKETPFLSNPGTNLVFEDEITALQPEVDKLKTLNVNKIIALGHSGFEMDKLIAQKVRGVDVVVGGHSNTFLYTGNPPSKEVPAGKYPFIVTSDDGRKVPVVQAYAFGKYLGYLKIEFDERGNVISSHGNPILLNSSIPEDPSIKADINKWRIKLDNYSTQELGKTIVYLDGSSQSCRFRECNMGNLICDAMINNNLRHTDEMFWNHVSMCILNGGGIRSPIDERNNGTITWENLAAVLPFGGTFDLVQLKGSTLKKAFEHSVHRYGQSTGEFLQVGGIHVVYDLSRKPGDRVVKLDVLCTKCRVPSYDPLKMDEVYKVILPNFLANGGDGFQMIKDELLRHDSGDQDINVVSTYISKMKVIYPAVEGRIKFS
Kind of assay: antigen-immobilized ELISA and function screening (Example 1).

The chains behind the UniProt entries cited, without tags or fusion partners. Where a name states a change or a piece, a line headed by the entry shows the natural chain unless it says otherwise. A line that says so, or that is headed by a name, gives the form on record, which may keep a tag or linker.
rhesus CD73 on transfected HEK293T cells (F7GPZ7, form named): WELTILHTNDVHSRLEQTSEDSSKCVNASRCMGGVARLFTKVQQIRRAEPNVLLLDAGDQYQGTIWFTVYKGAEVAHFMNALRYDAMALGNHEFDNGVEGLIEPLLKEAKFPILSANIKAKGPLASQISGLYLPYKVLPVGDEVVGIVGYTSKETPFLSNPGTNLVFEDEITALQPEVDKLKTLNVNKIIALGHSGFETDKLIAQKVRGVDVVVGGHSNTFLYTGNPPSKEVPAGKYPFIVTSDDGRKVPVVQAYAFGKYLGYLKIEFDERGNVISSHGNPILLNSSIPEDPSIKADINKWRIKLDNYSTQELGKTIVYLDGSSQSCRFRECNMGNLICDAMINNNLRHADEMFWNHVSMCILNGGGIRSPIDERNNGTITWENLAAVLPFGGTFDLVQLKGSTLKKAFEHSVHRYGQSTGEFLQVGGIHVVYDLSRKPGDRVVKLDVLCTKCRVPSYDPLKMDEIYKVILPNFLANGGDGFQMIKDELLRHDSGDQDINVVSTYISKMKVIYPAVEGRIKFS

For assay [2], the target named is human CD73 on cells (H322, MDA-MB-231, HT-144, T cells, CD73-transfected HEK293T) (human) (UniProt P21589). Kind of assay: flow cytometry on MDA-MB-231 cells (endogenous CD73), fluorescently labeled secondary antibody, PE channel.
Assay [3] shares this target. The assay is described as follows: flow cytometry on H322 cells (endogenous CD73), fluorescently labeled secondary antibody, PE channel.
For assay [4] the target is unchanged. Kind of assay: flow cytometry on HEK-293T cells forcibly expressing human CD73, fluorescently labeled secondary antibody, PE channel.
Assay [5] deals with T2, rhesus CD73 on transfected HEK293T cells (rhesus) (UniProt F7GPZ7).
T2 sequence: T1 sequence with M199T, T350A, V466I
Kind of assay: flow cytometry on HEK293T cells expressing the rhesus CD73 gene (same amino acid sequence as cynomolgus CD73), APC channel.

Assay [6] addresses T2, rhesus CD73 on transfected HEK293T cells (rhesus). The assay is described as follows: flow cytometry, HEK293T cells expressing the rhesus CD73 gene.
The target in assay [7] is human CD73 on cells (H322, MDA-MB-231, HT-144, T cells, CD73-transfected HEK293T) (human) (UniProt P21589). The assay is described as follows: flow cytometry on H322 cells (endogenous CD73), PE channel.
The target is the same in assay [8]. Kind of assay: flow cytometry, H322 cells endogenously expressing CD73.
Assay [9] deals with T2, rhesus CD73 on transfected HEK293T cells (rhesus). The assay is described as follows: flow cytometry, HEK293T cells expressing the rhesus CD73 gene (reference).

Positions count from the first letter of the chain named. Results are given in words; binding and its absence hold for the method and conditions named. Some entries that bind do so weakly or less than the wild type.

B1: 009_m antibody (antibody, V domains shown)
VH: QVQLQQSGAELVRPGASVKLSCKASGYTFTSYWMNWVKQRPEPGLEWIGRIDPYDSEAHYNQKFKDKAILTVDKSSSTAYMQLSSLTSEDSAVYYCTRIRYGTFDYWGQGTTLTVSS
VL: DIVLTQSPSSMYASLGERVTITCKASQDINSYLSWFQQKPGKSPKTLIYRSNSLVDGVPSRFSGSGSGQDYSLTISSLEYEDMGSYYCLQYDEFPYTFGGGTRLEIKR
On to B1, for which, in assay [1], the binding entry is on record as “binds”.

B2: 008_m antibody (antibody, V domains shown)
VH: QVQLKQSGAELVKPGASVKLSCKASGYTFTSYWMHWVKQRPGQGPEWIGEINPSNGRTNYNEKFKNRATLTVDKSSSTAYMQLSRLTSEDSAVYYCARRGTSGNYFDYWGQGTTLTVSS
VL: DIQMTQSPSSMYASLGERVTITCKASQDINTYLSWFQQKPGKSPKTLIYRANRLVDGVPSRFSGSGSGEDYSLTISSLEYEDMGIYYCLQYDEFPYTFGGGTRLEIK
Consider B2, for which the binding result in [2], in [1], in assay [3] and in assay [4] was “binds” each time.

B3: 006_m antibody (antibody, V domains shown)
VH: QVQLQQPGAELVKPGVSVKLSCKASGYTFTSYWMHWVKQRPGQGPEWIGEINPSNARTNYNENFKSKATLTVDKSSTTAYMHFSRLTSEDSAVYYCARRGTSGNYFDFWGQGTTVTVSS
VL: B2 VL
As to B3, the binding result in assay [1] is “binds”.

B4: 002_m antibody (antibody, V domains shown)
VH: QVQMKQSGPELVKPGASVKIPCKASGYTFTDCNMDWVKQSHGESLEWIGDINPNNGGTIYNQKFKGKVTLTIDKSSSTAYMELRSLTSEDTAVYYCARTNWDYAMDYWGQGTSVTVSS
VL: B2 VL with T31S, Y32N, V55I, E69Q, E93V, Y96R, R103K, I106L
For the molecule B4, the binding entry in assay [1] is recorded as “binds”.

B5: 007_m antibody (antibody, V domains shown)
VH: B1 VH with S7P, P43Q, R50K, A58T, Y80F, T97A
VL: B2 VL with Q3V, T31N, R53I, R61G, E69Q
For B5, the binding result in assay [1] was “binds”.

B6: 006_hKB antibody (antibody, V domains shown)
VH: QVQLLQSGAEVKKPGESVKISCKASGYTFTSYWMHWVKQRPGQGLEWIGEINPSNARTNYNENFKSRFTITVDKSTSTAYMQFSRLRSDDTAVYYCARRGTSGNYFDFWGQGTMLTVSS
VL: B2 VL with M11L, Y12S, E17Q, S43P, E79Q, Y80S, M83F, I85V, G100P
On to B6, for which the binding result in [5] and in assay [6] was “binds” in each case.

B7: 002_6_h7 (antibody, V domains shown)
VH: EVQLVESGAEVKKPGASVKVSCKASGYTFTDSNMDWVRQAPGQGLEWMGDINPNNGGTIYNQKFKGRVTMTRDTSINTAYMELSRLRSDDTAVYYCAMTNWDYAMDYWGQGTTVTVSS
VL: DIVMTQSPSSLSASVGDRVTITCKASQDINSQLSWYQQKPGKAPKLLIYRANRLIDGVPSRFSGSGSGTDFTLTISSLQPEDFATYYCQQYDVFPRTFGQGTKVEIK
With B7, the binding entry in assay [7] and in assay [8] was “binds” each time.

B8: 002_6_h4 antibody (antibody, V domains shown)
VH: QVQMKQSAAEVRKPGASVKVSCKASGYTFTDSNMDWVRQAPGQGLEWMGDINPNNGGTIYNQKFKGRVTMTIDTSRSTAYMELRSLRSDDTAVYYCARTNWDYAMDYWGQGTTVTVSS
VL: B7 VL with V3Q, S10F, L46T, P80Y, F83M, Q89L, Q100G, V104L
With B8, the binding result in assay [5] and in assay [9] was “binds” throughout.

B9: 005_m antibody (antibody, V domains shown)
VH: DVQLVESGPGLVAPSQSLSITCTVSGFSLTSYGVSWVRQPPGKGLEWLGVIWGDGSTNYHSALISRLSISKDNSKSQVFLKLNSLQTDDTATYYCAKTNIFYDYDWYLDVWGAGTTVTVSS
VL: DIVMTQAPLSLPVSLGDQASISCRSSQSLVHSNGNTYLHWYLQKPGQSPKLLIYKVSNRFSGVPDRFSGSGSGTDFTLKISRVEAEDLGVYFCSHSTHVPWTFGGGTKLELK
As to B9, the binding entry in [1] is “binds”.
